# According to the supplement of paper PMC6411743:
# Chains of the proteins cited; added tags and fusions are not shown. Lines headed by an entry give the natural chain unless they say otherwise; changes in a name come on top.
# UniProt Q96SU4: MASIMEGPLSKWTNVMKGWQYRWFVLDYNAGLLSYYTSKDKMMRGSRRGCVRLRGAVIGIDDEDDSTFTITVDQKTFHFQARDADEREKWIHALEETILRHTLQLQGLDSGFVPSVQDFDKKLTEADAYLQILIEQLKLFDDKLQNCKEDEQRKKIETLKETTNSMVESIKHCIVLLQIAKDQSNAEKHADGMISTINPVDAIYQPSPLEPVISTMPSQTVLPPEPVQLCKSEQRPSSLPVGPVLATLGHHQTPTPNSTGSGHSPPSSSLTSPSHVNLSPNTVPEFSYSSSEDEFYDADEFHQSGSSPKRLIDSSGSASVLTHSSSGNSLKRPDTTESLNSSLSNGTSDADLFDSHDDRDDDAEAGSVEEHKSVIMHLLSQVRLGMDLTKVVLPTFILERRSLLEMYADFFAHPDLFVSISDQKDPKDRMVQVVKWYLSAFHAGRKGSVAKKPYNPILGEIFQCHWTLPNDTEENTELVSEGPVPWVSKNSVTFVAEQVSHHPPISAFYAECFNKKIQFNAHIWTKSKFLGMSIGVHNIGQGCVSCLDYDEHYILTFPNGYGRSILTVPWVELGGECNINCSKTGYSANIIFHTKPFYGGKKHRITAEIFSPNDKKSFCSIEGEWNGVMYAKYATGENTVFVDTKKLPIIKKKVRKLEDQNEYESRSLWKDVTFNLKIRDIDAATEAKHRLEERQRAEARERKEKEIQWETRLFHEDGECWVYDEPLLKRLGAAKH
# UniProt Q96EB1: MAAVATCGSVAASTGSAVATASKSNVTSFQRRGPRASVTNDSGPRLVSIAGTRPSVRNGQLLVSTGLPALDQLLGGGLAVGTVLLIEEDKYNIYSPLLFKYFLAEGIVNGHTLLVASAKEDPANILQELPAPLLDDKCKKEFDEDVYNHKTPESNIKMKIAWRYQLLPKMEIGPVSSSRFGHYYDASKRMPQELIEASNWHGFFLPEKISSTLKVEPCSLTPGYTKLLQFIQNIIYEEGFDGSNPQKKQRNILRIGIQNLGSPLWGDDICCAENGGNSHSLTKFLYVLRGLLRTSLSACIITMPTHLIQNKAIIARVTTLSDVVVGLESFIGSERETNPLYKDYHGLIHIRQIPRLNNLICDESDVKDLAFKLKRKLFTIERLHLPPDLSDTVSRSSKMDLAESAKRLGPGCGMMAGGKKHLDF
# UniProt Q96RR4, whole entry, looked up: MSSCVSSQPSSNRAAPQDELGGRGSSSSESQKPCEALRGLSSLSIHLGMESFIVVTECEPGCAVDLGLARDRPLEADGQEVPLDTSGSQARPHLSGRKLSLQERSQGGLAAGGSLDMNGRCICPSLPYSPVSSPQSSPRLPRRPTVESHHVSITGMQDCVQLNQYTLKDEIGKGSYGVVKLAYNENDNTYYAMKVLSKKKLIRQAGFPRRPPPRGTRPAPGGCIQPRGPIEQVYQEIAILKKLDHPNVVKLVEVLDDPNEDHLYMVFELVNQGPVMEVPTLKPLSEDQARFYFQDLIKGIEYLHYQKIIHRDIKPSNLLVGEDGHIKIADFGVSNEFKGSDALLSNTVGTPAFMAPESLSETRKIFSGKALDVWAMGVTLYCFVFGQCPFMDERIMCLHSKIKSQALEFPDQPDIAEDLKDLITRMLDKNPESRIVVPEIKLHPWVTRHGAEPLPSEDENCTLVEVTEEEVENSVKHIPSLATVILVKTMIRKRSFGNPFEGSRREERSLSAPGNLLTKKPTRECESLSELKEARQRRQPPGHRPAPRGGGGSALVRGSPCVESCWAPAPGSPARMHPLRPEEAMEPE
# UniProt Q96SZ5, whole entry: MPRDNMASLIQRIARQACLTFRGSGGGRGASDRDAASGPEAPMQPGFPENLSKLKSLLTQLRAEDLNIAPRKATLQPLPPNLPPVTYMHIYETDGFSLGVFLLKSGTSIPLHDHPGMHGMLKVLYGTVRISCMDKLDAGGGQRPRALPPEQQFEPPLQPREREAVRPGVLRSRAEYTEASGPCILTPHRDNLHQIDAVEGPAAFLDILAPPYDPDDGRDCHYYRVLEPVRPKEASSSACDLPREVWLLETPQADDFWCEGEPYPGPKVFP
# UniProt Q96BQ5: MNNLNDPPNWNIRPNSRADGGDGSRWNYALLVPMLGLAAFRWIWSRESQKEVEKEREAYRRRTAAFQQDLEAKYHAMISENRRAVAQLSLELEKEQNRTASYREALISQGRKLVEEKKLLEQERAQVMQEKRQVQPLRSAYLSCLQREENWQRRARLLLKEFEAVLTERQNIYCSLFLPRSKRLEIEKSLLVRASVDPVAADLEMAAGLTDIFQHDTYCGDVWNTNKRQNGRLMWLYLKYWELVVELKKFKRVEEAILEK
# UniProt Q96PU4: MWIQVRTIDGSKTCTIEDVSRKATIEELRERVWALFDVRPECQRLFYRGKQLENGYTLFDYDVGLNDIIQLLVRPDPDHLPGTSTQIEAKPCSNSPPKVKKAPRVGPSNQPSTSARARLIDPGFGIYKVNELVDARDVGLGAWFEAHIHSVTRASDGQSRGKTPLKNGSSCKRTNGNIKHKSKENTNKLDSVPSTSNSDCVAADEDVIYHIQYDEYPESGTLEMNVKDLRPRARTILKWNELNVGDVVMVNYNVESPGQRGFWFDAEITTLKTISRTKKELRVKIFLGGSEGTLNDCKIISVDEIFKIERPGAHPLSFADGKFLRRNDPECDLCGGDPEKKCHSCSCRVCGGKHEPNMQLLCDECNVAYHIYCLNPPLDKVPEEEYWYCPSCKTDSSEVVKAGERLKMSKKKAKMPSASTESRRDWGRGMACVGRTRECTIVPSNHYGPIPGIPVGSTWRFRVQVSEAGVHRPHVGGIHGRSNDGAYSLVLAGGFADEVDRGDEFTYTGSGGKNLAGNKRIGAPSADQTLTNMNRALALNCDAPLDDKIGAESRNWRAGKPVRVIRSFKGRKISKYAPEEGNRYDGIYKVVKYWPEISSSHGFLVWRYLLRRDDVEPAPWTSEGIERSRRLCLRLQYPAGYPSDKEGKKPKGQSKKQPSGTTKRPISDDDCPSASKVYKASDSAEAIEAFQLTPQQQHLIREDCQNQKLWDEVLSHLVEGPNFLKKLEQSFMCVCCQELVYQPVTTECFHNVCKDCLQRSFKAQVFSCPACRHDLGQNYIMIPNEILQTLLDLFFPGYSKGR
# UniProt Q96N66: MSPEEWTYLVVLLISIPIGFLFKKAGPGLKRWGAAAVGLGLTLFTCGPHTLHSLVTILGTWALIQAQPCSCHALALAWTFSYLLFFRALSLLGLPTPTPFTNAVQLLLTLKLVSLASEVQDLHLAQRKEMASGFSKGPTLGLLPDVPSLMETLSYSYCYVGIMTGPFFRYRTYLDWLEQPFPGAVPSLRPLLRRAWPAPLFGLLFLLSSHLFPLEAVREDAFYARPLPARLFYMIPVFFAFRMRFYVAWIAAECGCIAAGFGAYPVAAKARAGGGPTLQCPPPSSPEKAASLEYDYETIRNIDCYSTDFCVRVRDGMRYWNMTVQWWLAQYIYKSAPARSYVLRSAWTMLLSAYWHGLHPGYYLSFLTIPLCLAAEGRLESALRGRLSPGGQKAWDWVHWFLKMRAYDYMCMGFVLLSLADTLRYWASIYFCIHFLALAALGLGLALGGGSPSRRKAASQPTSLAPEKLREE
# UniProt Q96EK6: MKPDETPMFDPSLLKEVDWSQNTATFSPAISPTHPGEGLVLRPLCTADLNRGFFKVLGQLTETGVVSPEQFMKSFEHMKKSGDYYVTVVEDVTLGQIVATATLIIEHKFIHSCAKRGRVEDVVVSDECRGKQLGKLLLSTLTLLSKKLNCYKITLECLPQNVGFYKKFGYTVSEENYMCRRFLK
# UniProt Q96L73: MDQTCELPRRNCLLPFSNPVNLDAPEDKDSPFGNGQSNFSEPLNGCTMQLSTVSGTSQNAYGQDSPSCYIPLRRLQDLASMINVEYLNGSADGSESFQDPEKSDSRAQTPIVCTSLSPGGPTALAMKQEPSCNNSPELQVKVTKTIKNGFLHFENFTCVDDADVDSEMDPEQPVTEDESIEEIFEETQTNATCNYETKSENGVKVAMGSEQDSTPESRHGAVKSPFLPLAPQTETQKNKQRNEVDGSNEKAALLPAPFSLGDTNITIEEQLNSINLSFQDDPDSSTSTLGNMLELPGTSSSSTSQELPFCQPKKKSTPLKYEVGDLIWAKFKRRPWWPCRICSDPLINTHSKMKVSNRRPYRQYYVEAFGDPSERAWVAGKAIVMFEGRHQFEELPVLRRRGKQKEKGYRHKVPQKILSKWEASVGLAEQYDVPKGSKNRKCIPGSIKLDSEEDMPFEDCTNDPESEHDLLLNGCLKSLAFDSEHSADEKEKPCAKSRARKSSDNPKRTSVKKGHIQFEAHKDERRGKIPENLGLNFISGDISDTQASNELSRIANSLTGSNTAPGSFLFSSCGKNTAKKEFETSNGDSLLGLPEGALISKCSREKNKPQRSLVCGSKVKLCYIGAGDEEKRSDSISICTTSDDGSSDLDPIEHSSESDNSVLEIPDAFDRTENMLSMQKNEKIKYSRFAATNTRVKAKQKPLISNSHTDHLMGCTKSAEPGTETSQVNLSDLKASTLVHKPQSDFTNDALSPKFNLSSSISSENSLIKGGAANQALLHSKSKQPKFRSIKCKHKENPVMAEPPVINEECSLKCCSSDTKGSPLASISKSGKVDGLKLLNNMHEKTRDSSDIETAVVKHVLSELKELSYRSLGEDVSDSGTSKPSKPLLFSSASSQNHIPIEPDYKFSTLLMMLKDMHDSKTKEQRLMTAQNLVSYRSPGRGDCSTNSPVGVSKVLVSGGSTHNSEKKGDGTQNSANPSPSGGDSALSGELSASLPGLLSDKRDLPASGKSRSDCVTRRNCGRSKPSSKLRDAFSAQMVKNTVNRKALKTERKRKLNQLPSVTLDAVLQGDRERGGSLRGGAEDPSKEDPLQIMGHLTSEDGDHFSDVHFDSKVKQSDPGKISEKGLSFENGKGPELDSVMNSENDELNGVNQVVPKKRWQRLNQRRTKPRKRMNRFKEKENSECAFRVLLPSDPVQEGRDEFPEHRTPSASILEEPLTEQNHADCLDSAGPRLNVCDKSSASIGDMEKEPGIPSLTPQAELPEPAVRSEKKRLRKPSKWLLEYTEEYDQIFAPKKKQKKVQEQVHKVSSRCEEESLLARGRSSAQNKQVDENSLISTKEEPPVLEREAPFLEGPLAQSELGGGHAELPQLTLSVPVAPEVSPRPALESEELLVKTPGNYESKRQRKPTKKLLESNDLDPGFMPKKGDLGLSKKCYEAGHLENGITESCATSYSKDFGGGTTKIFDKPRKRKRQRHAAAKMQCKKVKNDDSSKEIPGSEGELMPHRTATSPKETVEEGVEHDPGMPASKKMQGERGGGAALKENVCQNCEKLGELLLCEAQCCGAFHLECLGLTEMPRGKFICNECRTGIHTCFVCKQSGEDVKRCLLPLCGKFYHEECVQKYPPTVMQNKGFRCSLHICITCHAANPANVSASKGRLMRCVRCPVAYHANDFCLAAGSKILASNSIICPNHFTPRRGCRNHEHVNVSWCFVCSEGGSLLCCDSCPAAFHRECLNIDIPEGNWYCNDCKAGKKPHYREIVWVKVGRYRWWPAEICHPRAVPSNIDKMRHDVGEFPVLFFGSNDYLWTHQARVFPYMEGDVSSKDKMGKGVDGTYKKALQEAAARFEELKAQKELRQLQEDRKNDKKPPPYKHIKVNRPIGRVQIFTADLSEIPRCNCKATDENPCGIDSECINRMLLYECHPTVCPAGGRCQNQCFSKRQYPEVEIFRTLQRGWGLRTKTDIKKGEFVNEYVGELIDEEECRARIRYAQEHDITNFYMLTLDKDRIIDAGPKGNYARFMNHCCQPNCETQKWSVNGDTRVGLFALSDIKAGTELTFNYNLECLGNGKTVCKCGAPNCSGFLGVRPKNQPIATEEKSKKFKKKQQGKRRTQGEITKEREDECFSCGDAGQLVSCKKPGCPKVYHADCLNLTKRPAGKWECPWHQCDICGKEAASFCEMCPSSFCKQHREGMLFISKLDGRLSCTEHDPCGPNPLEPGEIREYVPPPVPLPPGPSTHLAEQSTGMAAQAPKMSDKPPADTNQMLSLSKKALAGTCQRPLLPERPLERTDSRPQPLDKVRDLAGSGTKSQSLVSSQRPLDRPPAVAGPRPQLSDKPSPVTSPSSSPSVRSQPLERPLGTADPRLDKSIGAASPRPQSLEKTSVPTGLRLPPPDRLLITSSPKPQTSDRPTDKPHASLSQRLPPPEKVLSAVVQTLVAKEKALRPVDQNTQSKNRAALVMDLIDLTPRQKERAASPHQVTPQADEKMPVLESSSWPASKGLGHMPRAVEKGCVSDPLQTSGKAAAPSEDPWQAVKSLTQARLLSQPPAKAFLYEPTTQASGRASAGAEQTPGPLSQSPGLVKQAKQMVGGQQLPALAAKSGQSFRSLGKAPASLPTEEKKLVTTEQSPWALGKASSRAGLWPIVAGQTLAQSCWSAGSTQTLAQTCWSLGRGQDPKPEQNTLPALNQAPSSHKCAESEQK
# UniProt Q96E14: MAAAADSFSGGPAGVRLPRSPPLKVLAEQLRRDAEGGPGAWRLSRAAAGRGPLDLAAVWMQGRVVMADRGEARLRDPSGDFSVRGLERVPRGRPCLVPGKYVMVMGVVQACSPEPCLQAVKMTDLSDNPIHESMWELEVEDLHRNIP
# ± gives the standard deviation of the averaged measurements. The list shows a part of the results, in another mix than the full data.
# Compound: Nc1ncnc2c1ncn2[C@@H]1O[C@H](COP(=O)(O)OP(=O)(O)OP(=O)(O)O)[C@@H](O)[C@H]1O [adenosine triphosphate]
# Experiment: NP40-soluble protein abundance relative to vehicle (solubility fold change) (ratio); higher = more soluble protein in presence of ATP
# Method in brief: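 Values are fold changes against the detergent-processed vehicle, based on vsn-normalised intensities. Jurkat crude lysate was treated at eight concentrations from 0.1 to 10 mM (10 min at room temperature, then 3 min at 37 °C), solubilised with 0.8% NP40 and benzonase, ultracentrifuged and analysed by TMT-labelled LC-MS/MS over three independent experiments.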
Target,NP40-soluble protein abundance (concentration: 1mM),NP40-soluble protein abundance (concentration: 2mM),NP40-soluble protein abundance (concentration: 4mM),NP40-soluble protein abundance (concentration: 6mM),NP40-soluble protein abundance (concentration: 8mM),NP40-soluble protein abundance (concentration: 10mM)
UniProt Q96MX0 and related entries,0.774 ± 0.017,0.722 ± 0.027,0.711 ± 0.0094,0.581 ± 0.048,0.595 ± 0.022,0.595 ± 0.1
UniProt Q96K49 and related entries,0.969 ± 0.075,0.958 ± 0.023,0.981 ± 0.012,0.973 ± 0.025,0.949 ± 0.073,0.958 ± 0.029
LRRC58 (UniProt Q96CX6),0.949 ± 0.035,0.934 ± 0.022,0.98 ± 0.026,0.936 ± 0.029,0.905 ± 0.033,0.9095 ± 0.0077
SPAG5 (UniProt Q96R06),1.02 ± 0.034,1.03 ± 0.035,1.03 ± 0.013,1.05 ± 0.049,1 ± 0.022,1.05 ± 0.018
OSBPL9 (UniProt Q96SU4),0.975 ± 0.022,0.987 ± 0.032,0.962 ± 0.016,0.972 ± 0.034,0.965 ± 0.025,0.977 ± 0.036
UniProt Q96EB1 and related entries,0.979 ± 0.017,0.961 ± 0.031,0.951 ± 0.045,0.945 ± 0.036,0.941 ± 0.045,0.965 ± 0.037
UniProt Q96D96 and related entries,1.05 ± 0.072,1.01 ± 0.064,1.01 ± 0.091,1.02 ± 0.078,1.01 ± 0.068,1 ± 0.067
UniProt Q96GX5 and related entries,0.997 ± 0.069,0.962 ± 0.045,0.975 ± 0.065,1.02 ± 0.078,0.98 ± 0.037,0.947 ± 0.043
MRPS24 (UniProt Q96EL2),1.07 ± 0.099,0.953 ± 0.045,0.985 ± 0.019,0.874 ± 0.074,0.965 ± 0.071,0.897 ± 0.038
UniProt Q96Q42 and related entries,1.4 ± 0.21,1.54 ± 0.7,1.3 ± 0.2,1.59 ± 0.39,1.17 ± 0.077,1.17 ± 0.17
UniProt Q96ST2 and related entries,0.859 ± 0.02,0.834 ± 0.011,0.708 ± 0.026,0.634 ± 0.018,0.551 ± 0.035,0.556 ± 0.025
UniProt Q96RR4 and related entries,1.05 ± 0.043,1.04 ± 0.026,1 ± 0.028,1.03 ± 0.041,1 ± 0.012,1.02 ± 0.033
CHMP6 (UniProt Q96FZ7),0.9385 ± 0.0037,0.921 ± 0.016,0.957 ± 0.015,0.938 ± 0.014,0.978 ± 0.1,0.912 ± 0.15
UniProt Q96EE3 and related entries,1.04 ± 0.096,1.09 ± 0.05,1.09 ± 0.065,1.05 ± 0.065,1.06 ± 0.033,1.14 ± 0.044
ZNF830 (UniProt Q96NB3),1.16 ± 0.079,1.14 ± 0.056,1.11 ± 0.079,1.16 ± 0.11,1.1 ± 0.047,1.1 ± 0.069
SIPA1 (UniProt Q96FS4),0.967 ± 0.046,0.988 ± 0.022,1.04 ± 0.04,1.03 ± 0.071,1.08 ± 0.06,1.11 ± 0.014
ADO (UniProt Q96SZ5),0.945 ± 0.013,0.978 ± 0.026,0.959 ± 0.016,0.919 ± 0.05,0.959 ± 0.019,0.941 ± 0.037
DCUN1D1 (UniProt Q96GG9),0.989 ± 0.036,0.979 ± 0.035,0.925 ± 0.05,0.969 ± 0.041,0.939 ± 0.076,0.922 ± 0.048
TRMT61A (UniProt Q96FX7),0.973 ± 0.016,1.01 ± 0.025,1.01 ± 0.03,0.978 ± 0.068,0.991 ± 0.049,1.01 ± 0.037
CHCHD1 (UniProt Q96BP2),1.05 ± 0.054,0.989 ± 0.026,1 ± 0.09,1.05 ± 0.01,1.03 ± 0.02,0.918 ± 0.18
UniProt Q96PV6-2,1.05 ± 0.025,1.05 ± 0.024,1.087 ± 0.0021,1.11 ± 0.021,1.15 ± 0.02,1.17 ± 0.018
UniProt Q96DU3-2|Q96DU3,0.928 ± 0.034,0.945 ± 0.033,0.9556 ± 0.0076,0.968 ± 0.028,0.911 ± 0.022,0.905 ± 0.03
DHRS1 (UniProt Q96LJ7),1.07 ± 0.051,1.02 ± 0.017,1.03 ± 0.018,1.04 ± 0.027,0.981 ± 0.082,0.972 ± 0.027
UniProt Q96S55 and related entries,1.03 ± 0.037,1.02 ± 0.05,0.999 ± 0.054,1.02 ± 0.073,1.03 ± 0.033,1.07 ± 0.05
UniProt Q96DB5,0.97 ± 0.067,0.987 ± 0.041,0.967 ± 0.054,0.923 ± 0.04,0.946 ± 0.067,0.954 ± 0.024
PURB (UniProt Q96QR8),0.949 ± 0.0098,0.951 ± 0.041,0.911 ± 0.036,0.972 ± 0.022,0.892 ± 0.013,0.933 ± 0.041

Target,NP40-soluble protein abundance (concentration: 1mM),NP40-soluble protein abundance (concentration: 2mM),NP40-soluble protein abundance (concentration: 4mM),NP40-soluble protein abundance (concentration: 6mM),NP40-soluble protein abundance (concentration: 8mM),NP40-soluble protein abundance (concentration: 10mM)
UniProt Q96IJ6 and related entries,1.02 ± 0.071,0.995 ± 0.053,0.98 ± 0.039,0.984 ± 0.07,1 ± 0.024,0.952 ± 0.047
UniProt Q96BT7 and related entries,1.03 ± 0.082,1.05 ± 0.037,1.08 ± 0.07,1.01 ± 0.059,1.03 ± 0.046,1.08 ± 0.12
UniProt Q96F07-2|E7EVJ5,1.02 ± 0.12,0.993 ± 0.098,1 ± 0.069,0.874 ± 0.12,1.02 ± 0.014,0.985 ± 0.079
UniProt Q96L91 and related entries,1.04 ± 0.039,1.05 ± 0.088,1.06 ± 0.082,1.08 ± 0.14,1.11 ± 0.097,1.13 ± 0.1
CCDC127 (UniProt Q96BQ5),0.965 ± 0.12,1 ± 0.048,0.98 ± 0.01,0.859 ± 0.04,0.984 ± 0.049,0.953 ± 0.066
UniProt Q96Q89-3|Q96Q89 and related entries,1.04 ± 0.046,1.04 ± 0.046,1.01 ± 0.028,1.02 ± 0.065,0.967 ± 0.046,0.986 ± 0.057
Sirt1 (UniProt Q96EB6),0.931 ± 0.042,0.951 ± 0.019,0.935 ± 0.021,0.963 ± 0.025,0.894 ± 0.014,0.899 ± 0.019
PCMTD1 (UniProt Q96MG8),0.927 ± 0.026,0.897 ± 0.031,0.854 ± 0.054,0.853 ± 0.036,0.826 ± 0.074,0.844 ± 0.044
UHRF2 (UniProt Q96PU4),1.05 ± 0.057,1.05 ± 0.012,1.04 ± 0.044,1.022 ± 0.0055,1.03 ± 0.023,1.05 ± 0.021
UniProt Q96N66 and related entries,1.03 ± 0.089,1.01 ± 0.071,0.963 ± 0.058,0.961 ± 0.086,1 ± 0.053,1 ± 0.049
UniProt Q96RT1 and related entries,1 ± 0.02,0.984 ± 0.014,0.988 ± 0.021,0.998 ± 0.042,0.994 ± 0.022,1.002 ± 0.0084
GNPNAT1 (UniProt Q96EK6),1.03 ± 0.038,1.04 ± 0.041,0.984 ± 0.06,1.03 ± 0.063,0.985 ± 0.045,0.993 ± 0.059
LTV1 (UniProt Q96GA3),1.06 ± 0.065,1.02 ± 0.1,0.971 ± 0.089,1.06 ± 0.14,0.986 ± 0.07,0.994 ± 0.096
UniProt Q96EY1 and related entries,1.05 ± 0.042,1.05 ± 0.081,1.05 ± 0.067,1.06 ± 0.13,1.13 ± 0.12,1.22 ± 0.17
RBM14 (UniProt Q96PK6),0.997 ± 0.011,1.02 ± 0.018,1.034 ± 0.0033,1.09 ± 0.015,1.07 ± 0.028,1.06 ± 0.013
SIN3A (UniProt Q96ST3),1.06 ± 0.047,1.03 ± 0.028,1.02 ± 0.024,1.04 ± 0.046,1.08 ± 0.021,1.07 ± 0.038
UniProt Q96L73 and related entries,0.992 ± 0.11,1.11 ± 0.098,1.09 ± 0.13,1.17 ± 0.27,1.16 ± 0.35,1.3 ± 0.34
THOC3 (UniProt Q96J01),1.17 ± 0.12,1.16 ± 0.086,1.18 ± 0.1,1.26 ± 0.081,1.36 ± 0.14,1.33 ± 0.067
UniProt Q96EH3,1.05 ± 0.035,0.974 ± 0.061,0.979 ± 0.074,0.9176 ± 0.0085,0.933 ± 0.019,0.909 ± 0.084
PDLIM5 (UniProt Q96HC4),1.01 ± 0.032,1 ± 0.03,0.994 ± 0.061,0.999 ± 0.045,0.984 ± 0.082,0.964 ± 0.042
UniProt Q96BX8,1.02 ± 0.098,0.986 ± 0.1,0.971 ± 0.1,0.933 ± 0.087,0.961 ± 0.088,0.956 ± 0.066
UniProt Q96BY6-3,1.04 ± 0.052,1.04 ± 0.028,1.03 ± 0.062,0.993 ± 0.039,1.05 ± 0.034,1.02 ± 0.019
UniProt Q96E29 and related entries,1.03 ± 0.073,1.06 ± 0.1,1.02 ± 0.057,1.08 ± 0.11,0.993 ± 0.029,1.01 ± 0.048
UniProt Q96CB8 and related entries,1.01 ± 0.059,1.05 ± 0.054,1.12 ± 0.046,1.21 ± 0.15,1.23 ± 0.056,1.28 ± 0.12
RMI2 (UniProt Q96E14),0.949 ± 0.11,0.932 ± 0.098,0.98 ± 0.085,0.936 ± 0.016,0.958 ± 0.02,0.977 ± 0.046

# 12 entries from above, reformatted.
Target	NP40-soluble protein abundance (concentration: 1mM)	NP40-soluble protein abundance (concentration: 2mM)	NP40-soluble protein abundance (concentration: 4mM)	NP40-soluble protein abundance (concentration: 6mM)	NP40-soluble protein abundance (concentration: 8mM)	NP40-soluble protein abundance (concentration: 10mM)
UniProt Q96EY1 and related entries	1.05 ± 0.042	1.05 ± 0.081	1.05 ± 0.067	1.06 ± 0.13	1.13 ± 0.12	1.22 ± 0.17
RBM14 (UniProt Q96PK6)	0.997 ± 0.011	1.02 ± 0.018	1.034 ± 0.0033	1.09 ± 0.015	1.07 ± 0.028	1.06 ± 0.013
SIN3A (UniProt Q96ST3)	1.06 ± 0.047	1.03 ± 0.028	1.02 ± 0.024	1.04 ± 0.046	1.08 ± 0.021	1.07 ± 0.038
UniProt Q96L73 and related entries	0.992 ± 0.11	1.11 ± 0.098	1.09 ± 0.13	1.17 ± 0.27	1.16 ± 0.35	1.3 ± 0.34
THOC3 (UniProt Q96J01)	1.17 ± 0.12	1.16 ± 0.086	1.18 ± 0.1	1.26 ± 0.081	1.36 ± 0.14	1.33 ± 0.067
UniProt Q96EH3	1.05 ± 0.035	0.974 ± 0.061	0.979 ± 0.074	0.9176 ± 0.0085	0.933 ± 0.019	0.909 ± 0.084
PDLIM5 (UniProt Q96HC4)	1.01 ± 0.032	1 ± 0.03	0.994 ± 0.061	0.999 ± 0.045	0.984 ± 0.082	0.964 ± 0.042
UniProt Q96BX8	1.02 ± 0.098	0.986 ± 0.1	0.971 ± 0.1	0.933 ± 0.087	0.961 ± 0.088	0.956 ± 0.066
UniProt Q96BY6-3	1.04 ± 0.052	1.04 ± 0.028	1.03 ± 0.062	0.993 ± 0.039	1.05 ± 0.034	1.02 ± 0.019
UniProt Q96E29 and related entries	1.03 ± 0.073	1.06 ± 0.1	1.02 ± 0.057	1.08 ± 0.11	0.993 ± 0.029	1.01 ± 0.048
UniProt Q96CB8 and related entries	1.01 ± 0.059	1.05 ± 0.054	1.12 ± 0.046	1.21 ± 0.15	1.23 ± 0.056	1.28 ± 0.12
RMI2 (UniProt Q96E14)	0.949 ± 0.11	0.932 ± 0.098	0.98 ± 0.085	0.936 ± 0.016	0.958 ± 0.02	0.977 ± 0.046
